From US20050037946A1, “Methods and compositions for treating cardiovascular disease using 1722, 10280, 59917, 85553, 10653, 9235, 21668, 17794, 2210, 6169, 10102, 21061, 17662, 1468, 12282, 6350, 9035, 1820, 23652, 7301, 8925, 8701, 3533, 9462, 9123, 12788, 17729, 65552, 1261, 21476, 33770, 9380, 2569654, 33556, 53656, …” (Millennium Pharmaceuticals, Inc., priority 2003, published 2005)
At least one compound was matched to its structure with a doubt left.

Assays:
[1] = system: 19319 mRNA; test: 19319 mRNA in livers of marmosets (TaqMan); type: in vivo
[2] = system: 7301 mRNA; test: 7301 mRNA in livers of marmosets treated with lipid-lowering therapies (TaqMan); type: in vivo
Excerpt: (§1) This example describes the TaqMan™ procedure. The Taqman™ procedure is a quantitative, reverse transcription PCR-based approach for detecting mRNA. The RT-PCR reaction exploits the 5′ nuclease activity of AmpliTaq Gold™ DNA Polymerase to cleave a TaqMan™ probe during PCR. Briefly, cDNA was generated from the samples of interest, e.g., heart, kidney, liver, skeletal muscle, and various vessels, and used as the starting material for PCR amplification. In addition to the 5′ and 3′ gene-specific primers, a gene-specific oligonucleotide probe (complementary to the region being amplified) was included in the reaction (i.e., the Taqman™ probe). […]
(§2) During the PCR reaction, cleavage of the probe separates the reporter dye and the quencher dye, resulting in increased fluorescence of the reporter. Accumulation of PCR products is detected directly by monitoring the increase in fluorescence of the reporter dye. When the probe is intact, the proximity of the reporter dye to the quencher dye results in suppression of the reporter fluorescence. […]

[3] = system: 17729 mRNA; test: 17729 mRNA in marmoset models (TaqMan); type: in vivo
[4] = system: 9123 mRNA; test: 9123 mRNA in livers of marmosets treated with lipid-lowering therapies (TaqMan); type: in vivo
Excerpt: as §1, §2

[5] = system: 10653 mRNA; test: 10653 mRNA in livers of marmosets treated with lipid-lowering therapies (TaqMan); type: in vivo
[6] = system: 8701 mRNA; test: 8701 mRNA in livers of marmosets treated with lipid-lowering therapies (TaqMan); type: in vivo
[7] = system: 21668 mRNA; test: 21668 mRNA in marmoset models treated with cholesterol lowering agents (TaqMan); type: in vivo
[8] = system: 10102 mRNA; test: 10102 mRNA regulation by lipid lowering drugs (TaqMan)
[9] = system: HMG-CoA synthase; test: HMG-CoA synthase expression in cerivastatin treated monkeys; type: in vivo
[10] = system: 8925 mRNA; test: 8925 mRNA in livers of marmosets treated with lipid-lowering therapies (TaqMan); type: in vivo
[11] = system: 13886 mRNA; test: 13886 mRNA in aortas of treated rats (TaqMan); type: in vivo; conditions: three days, vs vehicle treated controls, p<0.001 ANOVA
Excerpt: as §1, §2

[12] = system: 44143 mRNA; test: 44143 mRNA in aortas of rats treated with antihypertensive agents (TaqMan); type: in vivo; conditions: twenty eight days, compared to vehicle treated controls

Row | Compound | 19319 mRNA expression [1] | 7301 mRNA expression [2] | 17729 mRNA expression [3] | 9123 mRNA expression [4] | 10653 mRNA expression [5] | 8701 mRNA expression [6] | 21668 mRNA expression [7] | 10102 mRNA expression [8] | HMG-CoA synthase expression [9] | 8925 mRNA expression [10] | expression of 13886 mRNA [11] | 44143 mRNA expression [12]
1 | COCc1c(C(C)C)nc(C(C)C)c(/C=C/[C@@H](O)C[C@@H](O)CC(=O)O)c1-c1ccc(F)cc1 [cerivastatin] | upregulated | down-reregulated | upregulated | upregulated | downregualted | upregulated | marked increase | significantly upregulated | highly increased | upregulated | – | –
2 | CC(C)OC(=O)C(C)(C)Oc1ccc(C(=O)c2ccc(Cl)cc2)cc1 [fenofibrate] | – | down-reregulated | – | upregulated | downregualted | upregulated | – | – | – | – | – | –
3 | Nc1cc(N2CCCCC2)nc(N)[n+]1[O-] [minoxidil] | – | – | – | – | – | – | – | – | – | – | dramatically down-regulated | upregulated
4 | COC(=O)C1=C(C)NC(C)=C(C(=O)OC)C1c1ccccc1[N+](=O)[O-] [nifedipine] | – | – | – | – | – | – | – | – | – | – | dramatically down-regulated | –
